# In PMC5996148:
# The other results are listed elsewhere or left out. For some of these results: The source does not settle which construct or isoform was used.
# How the values were obtained:
# Experiment in all cases: protein microarray (ProtoArray v5.0), streptavidin-Alexa Fluor 647
# Settings in all cases: 3'-biotin; 20 mM Tris (pH 7.5), 5 mM MgCl2, 100 mM KCl, 0.1% Tween-20, A/T-rich and random oligonucleotide blockers; temperature not stated; high values mean tight binding
# [1] = system: CD244 (human)
# [2] = system: CD44 antigen (human)
# [3] = system: CD74 (human)
# [4] = system: CD9 (human)
# [5] = system: CDC123 (human)
# [6] = system: CDC37 (human)
# [7] = target: T1, CDC40 (UniProt O60508)
# T1 sequence: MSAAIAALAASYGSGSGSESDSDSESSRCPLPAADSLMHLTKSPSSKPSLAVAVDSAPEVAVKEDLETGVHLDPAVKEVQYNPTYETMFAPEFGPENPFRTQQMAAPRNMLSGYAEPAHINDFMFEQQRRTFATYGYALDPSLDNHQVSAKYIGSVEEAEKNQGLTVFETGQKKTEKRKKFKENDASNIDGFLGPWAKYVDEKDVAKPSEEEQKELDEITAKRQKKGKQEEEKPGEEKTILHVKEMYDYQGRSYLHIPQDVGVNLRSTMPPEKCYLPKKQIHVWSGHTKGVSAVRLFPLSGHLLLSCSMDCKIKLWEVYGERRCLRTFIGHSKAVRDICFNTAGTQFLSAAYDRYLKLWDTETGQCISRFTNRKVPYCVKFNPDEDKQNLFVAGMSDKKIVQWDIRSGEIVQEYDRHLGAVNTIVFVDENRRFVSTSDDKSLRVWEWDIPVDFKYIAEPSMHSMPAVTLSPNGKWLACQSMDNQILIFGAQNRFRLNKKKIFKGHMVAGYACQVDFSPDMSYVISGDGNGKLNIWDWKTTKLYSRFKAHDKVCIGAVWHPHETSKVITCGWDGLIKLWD
# [8] = system: CDC42 (human)
# [9] = system: CDCA4 (human)
# [10] = system: CDK5 regulatory subunit-associated protein 3 (human)
sequence,measurement,setting,value
GGTGACAGGGGTATGGGGAGGGG [G4-2 biotinylated (Ct1)],binding signal,[1],-0.371 z-score
same,binding signal,[2],-0.382 z-score
same,binding signal,[3],-0.389 z-score
same,binding signal,[4],-0.388 z-score
same,binding signal,[5],-0.39 z-score
same,binding signal,[6],-0.382 z-score
same,binding signal,[7],3 z-score
same,binding signal,[8],-0.363 z-score
same,binding signal,[9],-0.392 z-score
same,binding signal,[10],-0.41 z-score
